Experimental data from the M2OR odorant receptor database.
This is a selection; strong and weak results do not stand in their true shares. Calls are pooled over several reports, among them a noisy single-well screen. The list shows a part of the results.

Chains of the proteins cited; added tags and fusions are not shown. A line that says so, or that is headed by a name, gives the form on record, which may keep a tag or linker.
UniProt Q8VG28, as listed by the source: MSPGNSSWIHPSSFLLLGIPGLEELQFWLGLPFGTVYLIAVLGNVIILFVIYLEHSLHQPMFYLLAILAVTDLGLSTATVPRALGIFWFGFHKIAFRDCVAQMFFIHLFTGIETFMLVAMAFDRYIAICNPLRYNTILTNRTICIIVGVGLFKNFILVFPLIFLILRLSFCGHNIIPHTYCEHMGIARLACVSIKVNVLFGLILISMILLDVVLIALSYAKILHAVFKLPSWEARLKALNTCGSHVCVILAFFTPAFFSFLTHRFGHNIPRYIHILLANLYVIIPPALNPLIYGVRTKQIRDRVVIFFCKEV

Columns and labels:
Details in all cases: stereoisomer not certain
UniProt Q8VG28 = biological target: UniProt Q8VG28
In short: (§1)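 Assay methods differ from source to source, frequently being transient luciferase assays in mammalian cell lines. For each receptor–molecule pair, the label responsive (active) applies when the original authors judged the measured signal statistically different from baseline, and non-responsive (inactive) applies otherwise.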

UniProt Q8VG49 = biological target: T1, UniProt Q8VG49
T1 sequence (whole entry): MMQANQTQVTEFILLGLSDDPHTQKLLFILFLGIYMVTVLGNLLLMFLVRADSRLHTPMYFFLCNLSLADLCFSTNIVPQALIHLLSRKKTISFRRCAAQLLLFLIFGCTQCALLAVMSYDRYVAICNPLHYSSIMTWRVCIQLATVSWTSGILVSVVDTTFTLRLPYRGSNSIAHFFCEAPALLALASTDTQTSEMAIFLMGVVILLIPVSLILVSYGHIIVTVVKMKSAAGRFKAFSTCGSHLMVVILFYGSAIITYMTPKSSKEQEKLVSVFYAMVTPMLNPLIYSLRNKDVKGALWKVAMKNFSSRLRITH
In short: as §1

UniProt Q8VG53 = biological target: T2, UniProt Q8VG53
T2 sequence (whole entry): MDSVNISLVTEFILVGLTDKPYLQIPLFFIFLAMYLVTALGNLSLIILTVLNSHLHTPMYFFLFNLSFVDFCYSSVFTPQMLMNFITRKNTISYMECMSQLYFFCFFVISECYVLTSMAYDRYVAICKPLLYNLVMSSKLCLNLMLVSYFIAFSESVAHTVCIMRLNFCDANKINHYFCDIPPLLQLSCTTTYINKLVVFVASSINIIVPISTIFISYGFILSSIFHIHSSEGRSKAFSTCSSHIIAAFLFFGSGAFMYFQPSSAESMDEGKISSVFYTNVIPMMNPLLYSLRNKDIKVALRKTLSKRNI
In short: as §1

UniProt Q8VG64 = biological target: T3, UniProt Q8VG64
T3 sequence (whole entry): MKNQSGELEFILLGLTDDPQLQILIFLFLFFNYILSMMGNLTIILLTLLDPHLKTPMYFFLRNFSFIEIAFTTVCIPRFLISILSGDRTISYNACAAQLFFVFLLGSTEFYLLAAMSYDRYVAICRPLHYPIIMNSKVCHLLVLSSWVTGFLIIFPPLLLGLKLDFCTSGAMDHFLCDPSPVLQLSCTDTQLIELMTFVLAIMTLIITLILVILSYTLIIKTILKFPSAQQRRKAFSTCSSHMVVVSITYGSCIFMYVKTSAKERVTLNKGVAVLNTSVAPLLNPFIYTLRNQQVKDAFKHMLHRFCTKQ
In short: as §1

UniProt Q8VG77 = biological target: T4, UniProt Q8VG77
T4 sequence (whole entry): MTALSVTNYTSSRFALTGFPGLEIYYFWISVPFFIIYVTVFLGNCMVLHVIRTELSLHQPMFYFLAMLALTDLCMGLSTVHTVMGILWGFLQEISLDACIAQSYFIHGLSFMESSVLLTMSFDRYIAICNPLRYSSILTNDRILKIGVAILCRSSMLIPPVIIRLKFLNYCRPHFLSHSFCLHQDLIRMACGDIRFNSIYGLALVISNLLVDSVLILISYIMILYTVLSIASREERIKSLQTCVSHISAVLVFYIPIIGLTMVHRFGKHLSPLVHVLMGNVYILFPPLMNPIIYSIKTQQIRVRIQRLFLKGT
In short: as §1

UniProt Q8VG96 = biological target: T5, UniProt Q8VG96
T5 sequence (whole entry): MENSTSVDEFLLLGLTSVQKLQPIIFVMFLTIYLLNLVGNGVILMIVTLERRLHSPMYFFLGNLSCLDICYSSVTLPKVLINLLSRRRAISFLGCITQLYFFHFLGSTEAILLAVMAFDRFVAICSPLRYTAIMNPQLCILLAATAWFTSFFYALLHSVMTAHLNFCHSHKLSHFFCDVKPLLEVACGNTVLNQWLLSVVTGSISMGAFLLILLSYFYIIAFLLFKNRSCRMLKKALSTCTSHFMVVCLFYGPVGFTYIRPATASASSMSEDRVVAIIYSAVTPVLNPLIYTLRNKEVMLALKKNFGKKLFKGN
In short: as §1

UniProt Q8VGB9 = biological target: T6, UniProt Q8VGB9
T6 sequence (whole entry): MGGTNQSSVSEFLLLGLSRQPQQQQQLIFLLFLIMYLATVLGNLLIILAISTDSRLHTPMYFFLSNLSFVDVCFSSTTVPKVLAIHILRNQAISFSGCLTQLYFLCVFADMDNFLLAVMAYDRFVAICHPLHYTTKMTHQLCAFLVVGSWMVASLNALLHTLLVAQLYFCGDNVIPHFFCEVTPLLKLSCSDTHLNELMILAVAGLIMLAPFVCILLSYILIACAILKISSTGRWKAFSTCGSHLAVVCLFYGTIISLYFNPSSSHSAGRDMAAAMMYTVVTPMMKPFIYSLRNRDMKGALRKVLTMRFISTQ
In short: as §1

UniProt Q8VGC6 = biological target: T7, UniProt Q8VGC6
T7 sequence (whole entry): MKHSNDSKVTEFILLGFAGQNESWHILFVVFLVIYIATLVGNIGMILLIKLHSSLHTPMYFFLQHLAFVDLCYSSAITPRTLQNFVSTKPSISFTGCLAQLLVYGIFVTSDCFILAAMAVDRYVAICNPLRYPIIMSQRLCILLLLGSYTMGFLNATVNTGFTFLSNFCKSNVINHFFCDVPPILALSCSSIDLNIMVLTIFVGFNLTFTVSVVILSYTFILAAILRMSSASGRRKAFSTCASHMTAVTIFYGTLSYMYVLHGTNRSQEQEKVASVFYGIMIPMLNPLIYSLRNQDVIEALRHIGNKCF
In short: as §1

UniProt Q8VGD7 = biological target: T8, UniProt Q8VGD7
T8 sequence (whole entry): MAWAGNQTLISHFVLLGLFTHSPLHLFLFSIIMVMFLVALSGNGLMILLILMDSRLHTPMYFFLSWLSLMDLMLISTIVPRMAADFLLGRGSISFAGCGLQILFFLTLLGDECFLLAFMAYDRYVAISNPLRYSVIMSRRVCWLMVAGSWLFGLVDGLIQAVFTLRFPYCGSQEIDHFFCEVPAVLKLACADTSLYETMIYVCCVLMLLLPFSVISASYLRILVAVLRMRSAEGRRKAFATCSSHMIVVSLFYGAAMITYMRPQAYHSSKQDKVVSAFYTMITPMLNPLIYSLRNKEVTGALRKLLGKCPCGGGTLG
In short: as §1

| SMILES | odorant receptor agonist call (UniProt Q8VG28) | odorant receptor agonist call (UniProt Q8VG49) | odorant receptor agonist call (UniProt Q8VG53) | odorant receptor agonist call (UniProt Q8VG64) | odorant receptor agonist call (UniProt Q8VG77) | odorant receptor agonist call (UniProt Q8VG96) | odorant receptor agonist call (UniProt Q8VGB9) | odorant receptor agonist call (UniProt Q8VGC6) | odorant receptor agonist call (UniProt Q8VGD7) |
| --- | --- | --- | --- | --- | --- | --- | --- | --- | --- |
| CCCCCC(=O)O | inactive | inactive | inactive | inactive | inactive | inactive | inactive | inactive | inactive |
| CC(C)(O)CCCC1=CCC(C=O)CC1 (configuration not stated) | – | inactive | inactive | inactive | inactive | inactive | inactive | inactive | inactive |
| CC(=O)C(C)=O | – | – | inactive | inactive | – | – | inactive | inactive | – |
| CCCCCCCCCCC=O | – | – | – | – | – | – | – | inactive | – |
| c1cnccn1 | – | – | inactive | inactive | – | – | inactive | inactive | – |
| CCCCCCCC=O | – | inactive | inactive | inactive | inactive | inactive | inactive | inactive | inactive |
| CCCCCCCCCC=O | – | inactive | inactive | inactive | inactive | inactive | inactive | inactive | inactive |
| CC12CCC(CC1)C(C)(C)O2 | – | – | inactive | inactive | – | – | inactive | inactive | – |
| CC(C)=CCCC(C)=CC=O | – | – | inactive | inactive | – | – | inactive | inactive | – |
| CCCCCCCCC=O | inactive | inactive | inactive | inactive | inactive | inactive | inactive | inactive | inactive |
| CCCCO | – | – | inactive | inactive | – | – | inactive | inactive | – |
| CCCCCC(C)=O | – | inactive | inactive | inactive | inactive | inactive | inactive | active | inactive |
| CCCC(=O)O | inactive | – | – | – | – | – | – | inactive | – |
| COC(=O)c1ccccc1O | – | – | inactive | inactive | – | – | inactive | inactive | – |
| CC12CCC(C1)C(C)(C)C2=O (configuration not stated) | – | inactive | – | – | inactive | inactive | – | inactive | inactive |

An excerpt from above, reduced to odorant receptor agonist call (UniProt Q8VG77) and odorant receptor agonist call (UniProt Q8VGB9).
SMILES | odorant receptor agonist call (UniProt Q8VG77) | odorant receptor agonist call (UniProt Q8VGB9)
CCCCCCCCC=O | inactive | inactive
COC(=O)c1ccccc1O | – | inactive
